# Data as given in PubChem BioAssay AID504808 (Drosophila RNAi Screening Center, 2011).
# Assay: 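Fly genes required to hold E2F transcription in check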 (primary screen)
# System: Drosophila S2 cells
# Reagent: long dsRNA against Drosophila genes
# Measured: 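Firefly luciferase driven by E2F sites, normalised to Renilla luciferase on the same minimal promoter, measured by plate reader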
# Reading the numbers: E2F firefly: higher = more E2F reporter activity; Renilla normaliser: higher = more normaliser reporter signal
# Hit rule: 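Called active if the normalised E2F reporter went up by over 50%; the cutoff is arbitrary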
# The screen tested about 21,000 reagents; this is a random part of those with a known target gene and a result. In the full data, 18 (0.084%) are marked active. 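Raw counts without plate normalisation, one of two replicates; the ratio scores behind the calls were not deposited.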 Entries without a mark were called inactive. The numbers tell different reagents against one gene apart. A plus sign joins genes that one reagent is predicted to hit. The record does not give: the amount of reagent, the time to read-out.
Gene,reagent no.,"E2F firefly, rep 1","Renilla normaliser, rep 1"
CG31855 (GeneID 318983),1,87902,3833
CG33500 (GeneID 2768957),1,1.05e5,4950
Muc68E (GeneID 2768990),1,1.38e5,4933
sa (GeneID 40367),1,1.38e5,6588
Ipo9 (GeneID 41367),1,1.58e5,7225
CG17267 (GeneID 42454),1,1.40e5,7206
Tmlh (GeneID 42421),1,1.44e5,7656
GXIVsPLA2 (GeneID 39734),1,63520,3158
Spc25 (GeneID 41585),1,1.21e5,6502
Syx1A (GeneID 42854),1,87446,6385
CG7849 (GeneID 35537),1,1.17e5,4964
CG11180 (GeneID 37330),1,69707,3107
CG5783 (GeneID 35088),1,1.02e5,4561
Trxr2 (GeneID 40475),1,1.18e5,5921
CG4887 (GeneID 33304),1,1.75e5,6180
CG31663 (GeneID 33363),1,1.38e5,6076
CG31663 (GeneID 33363),2,83185,3585
CG31663 (GeneID 33363),3,56150,3721
CG31663 (GeneID 33363),4,1.64e5,7094
ds (GeneID 33245),1,1.72e5,6180
Tret1-2 (GeneID 36249),1,1.04e5,4360
Cyp313a5 (GeneID 41486),1,1.60e5,6883
Zip42C.1 (GeneID 35579),1,1.05e5,3883
CG2938 (GeneID 31347),1,1719,832
CG2540 (GeneID 32216),1,7855,796
Hsf (GeneID 37068),1,63481,3752
CG11694 (GeneID 40985),1,1.20e5,5665
Clbn (GeneID 43018),1,1.22e5,6520
CG5149 (GeneID 34013),1,98975,4643
CG9705 (GeneID 39875),1,71206,3828
CG18661 (GeneID 50438),1,1.70e5,5362
GstE2 (GeneID 37107),1,1.44e5,4564
KCNQ (GeneID 36071),1,1.42e5,5240
KCNQ (GeneID 36071),2,1.48e5,5077
Flo2 (GeneID 32425),1,79130,2753
Flo2 (GeneID 32425),2,2.27e5,7330
BicC (GeneID 34946),1,1.21e5,4374
CG3527 (GeneID 31387),1,39690,3357
CG42233 (GeneID 43754),1,1.28e5,5471
CG42233 (GeneID 43754),2,68518,4473
sens (GeneID 45328),1,79825,3446
mus201 + Chrac-14,1,1.40e5,4773
mus201 + Chrac-14,2,1.58e5,5300
BORCS6 (GeneID 38068),1,1.03e5,3852
Gr94a (GeneID 117339),1,84664,2407
4E-T (GeneID 43836),1,1680,988
4E-T (GeneID 43836),2,1.04e5,5866
CG15916 (GeneID 32549),1,1.57e5,6503
CG14957 (GeneID 38386),1,1.04e5,4098
CG12863 (GeneID 36623),1,1.04e5,3656
CG9067 (GeneID 36197),1,93489,3890
Ipk2 (GeneID 33236),1,1.76e5,6955
Fcp1 (GeneID 37925),1,86964,3990
inaF-C (GeneID 5740497),1,81390,2430
Nmdar1 (GeneID 40665),1,72882,4683
Nmdar1 (GeneID 40665),2,1.37e5,7119
Rpp20 + CG33932,1,1.28e5,6448
Ptp4E (GeneID 31425),1,8157,708
CG8202 (GeneID 41043),1,1.43e5,7257
CG15404 (GeneID 33537),1,1.57e5,5012
Srpk79D (GeneID 40461),1,82805,3683
Srpk79D (GeneID 40461),2,1.41e5,6597
Datp (GeneID 318908),1,1.39e5,6163
VhaM9.7-d (GeneID 42041),1,1.03e5,5651
Polr2E (GeneID 36160),1,1.05e5,5171
Nepl8 (GeneID 34983),1,89443,3871
CG9083 (GeneID 37982),1,77860,3349
CG2975 (GeneID 33481),1,1.68e5,5494
mRpL28 (GeneID 33715),1,1.38e5,5022
CG2065 (GeneID 35707),1,1.43e5,4244
Alg3 (GeneID 37754),1,76982,3622
Pp1-13C (GeneID 48531),1,1.39e5,6089
G9a (GeneID 30971),1,1.22e5,6035
CG44836 (GeneID 39825),1,1.65e5,7353
CG6294 + CG6299,1,2.37e5,7312
CG14419 (GeneID 31276),1,1.24e5,5744
TM4SF (GeneID 37786),1,86762,3515
Pex16 (GeneID 40293),1,75331,3438
aux (GeneID 40527),1,78618,3843
CRMP (GeneID 40675),1,65781,4205
CRMP (GeneID 40675),2,67967,3578
Tsp42Ei (GeneID 35618),1,1.35e5,4563
Orc6 (GeneID 36017),1,1.40e5,4266
CG43394 (GeneID 318843),1,1.38e5,6462

Reprinted from the listing, 10 entries:
Gene,reagent no.,"E2F firefly, rep 1","Renilla normaliser, rep 1"
KCNQ (GeneID 36071),1,1.42e5,5240
KCNQ (GeneID 36071),2,1.48e5,5077
Flo2 (GeneID 32425),1,79130,2753
Flo2 (GeneID 32425),2,2.27e5,7330
BicC (GeneID 34946),1,1.21e5,4374
CG3527 (GeneID 31387),1,39690,3357
CG42233 (GeneID 43754),1,1.28e5,5471
CG42233 (GeneID 43754),2,68518,4473
sens (GeneID 45328),1,79825,3446
mus201 + Chrac-14,1,1.40e5,4773
